# Experimental data reported in the supplement of paper PMC3334620.
# Whole data set: some 33,000 sequences, median “E-score (-0.5 to 0.5)” near -0.015, cut for the highest 2% near 0.3. The list shows a part of the results.
# Target: T1, Abf1 (UniProt P14164)
# T1 sequence: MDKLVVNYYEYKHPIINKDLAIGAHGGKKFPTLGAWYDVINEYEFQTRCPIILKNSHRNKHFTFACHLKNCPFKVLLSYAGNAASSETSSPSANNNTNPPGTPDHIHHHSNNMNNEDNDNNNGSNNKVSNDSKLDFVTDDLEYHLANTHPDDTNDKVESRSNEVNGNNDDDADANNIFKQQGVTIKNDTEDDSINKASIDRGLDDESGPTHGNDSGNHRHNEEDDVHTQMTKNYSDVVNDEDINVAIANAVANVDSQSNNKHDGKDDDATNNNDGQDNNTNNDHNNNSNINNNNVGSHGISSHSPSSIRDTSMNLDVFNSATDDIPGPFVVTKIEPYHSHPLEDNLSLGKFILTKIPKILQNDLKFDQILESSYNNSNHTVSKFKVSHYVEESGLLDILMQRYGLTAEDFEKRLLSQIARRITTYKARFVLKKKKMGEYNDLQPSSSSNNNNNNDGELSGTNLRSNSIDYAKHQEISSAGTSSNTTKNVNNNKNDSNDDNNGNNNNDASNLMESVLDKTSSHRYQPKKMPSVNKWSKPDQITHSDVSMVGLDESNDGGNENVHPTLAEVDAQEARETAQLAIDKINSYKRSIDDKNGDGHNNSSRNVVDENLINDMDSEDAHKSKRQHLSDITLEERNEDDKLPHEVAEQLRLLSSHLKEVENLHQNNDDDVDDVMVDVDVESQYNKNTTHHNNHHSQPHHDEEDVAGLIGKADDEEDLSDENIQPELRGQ
# Experiment: PBM E-score (8-mer binding enrichment) (E-score (-0.5 to 0.5)); higher = stronger / more preferred TF binding
# Conditions: protein concentration: 200 nM; construct: GST-full length
# Procedure, shortened: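 For each ungapped eight-base word taken together with its reverse complement, the Universal PBM Analysis Suite assigned an E-score. Binding data came from GST-tagged yeast transcription factors, applied at about 100-200 nM, on universal all-10-mer Agilent arrays made double-stranded by primer extension. Fluorescent anti-GST marked bound protein, and scans were normalised with masliner.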
row,Sequence,PBM E-score
1,ATAGTCCG,-0.0525
2,GATGAACC,-0.00014
3,CGTCAGCC,0.118
4,CGAACAAC,0.196
5,ATAATACA,0.288
6,TAAGAGAA,0.189
7,TGAACACA,0.0244
8,GATGGCTA,0.074
9,AGTCATAG,-0.065
10,AGACCATG,-0.12
11,ATAGGTAC,-0.00674
12,CTTTCGAA,-0.0228
13,ACCTAGGG,-0.0783
14,AGAACTTA,-0.0203
15,CTCTACTC,-0.129
16,AAACTAGA,0.0568
17,GTTAGAGA,-0.0803
18,AATTCCCA,0.0516
19,AATTATTG,0.0813
20,CCCTGCCG,-0.0722
21,GAGGAGGA,-0.262
22,GTGTCGTA,0.208

row,Sequence,PBM E-score
1,ACCGGTAA,0.00473
2,AATATGAC,0.221
3,CCTATTAA,0.0196
4,ACCGTTAG,0.111
5,AGCCAATG,-0.129
6,CAGATAAC,-0.03
7,CTCTCAGA,-0.0951
8,ACTCGTGG,-0.0219
9,CCCGCATA,-0.0183
10,GCCGTACA,0.294
11,ATTTCTGC,0.0795
12,CTTAAGCA,-0.0462
13,AGAGAGGA,-0.197
14,CCACGGGG,-0.147
15,CCGCCAAC,-0.248
16,GTGAGAAA,0.243
17,GTTAGAAA,0.204
18,AAACAACC,0.02
19,AAAGAGTT,0.023
20,AAAGTCCG,0.0535
21,AACTTGGT,0.0132
22,AGACTGAA,-0.0702

row,Sequence,PBM E-score
1,CCCGTTCG,0.109
2,ACCTCCAT,-0.21
3,GTCGGTCA,0.0941
4,ATTCAGAG,0.0724
5,CACGAGAC,0.149
6,CCGAACTA,-0.143
7,AGAATCGA,0.131
8,CGTATCAG,0.0845
9,AAACGGTT,-0.224
10,CGGGTCAC,-0.109
11,ACGCCTAG,-0.0441
12,GTGCCGTA,0.142
13,GGTACGCA,-0.0249
14,CTTTTAAC,0.206
15,GTGCGTCA,0.0472
16,CAACTAGC,0.128
17,CGGACAGA,-0.101
18,ACACGCGA,0.106
19,CTTATGTA,0.214
20,ATCCAGCC,-0.153
21,TAACGTAA,0.115
22,CCCGGACA,0.12

row,Sequence,PBM E-score
1,TAGATTCA,-0.00457
2,ATGCGGTG,0.0635
3,CCTTGAAA,-0.0683
4,GAACCATA,-0.0703
5,TGAGACAA,0.111
6,AAGGCACT,-0.119
7,TGAGTACA,0.0445
8,ATAAGCAA,0.00499
9,CCATTGCG,-0.172
10,CCCTATGA,-0.091
11,TCATTGGA,0.173
12,CTCATTAA,0.148
13,GCAGGAAA,0.129
14,TGATGAAA,0.0461
15,CTCTCTCC,-0.134
16,GTGCGAGA,0.0794
17,CGGTCGAG,-0.298
18,CGAAGAAC,-0.0433
19,AATTAGTA,0.0644
20,AGTCTCTA,-0.0544
21,CCGGTAGC,-0.32
22,CTCAGTTA,-0.117

row,Sequence,PBM E-score
1,CTCCCTGC,-0.223
2,ATTGCACG,0.279
3,ACACCTCG,0.0446
4,GAGGACGA,0.193
5,ACTCAATA,0.0378
6,GAATCGAA,0.0566
7,CATGTACG,0.319
8,CAGTCAGC,-0.245
9,CTTCAAAA,0.112
10,AAAATGGA,0.238
11,AATAGGAC,-0.0626
12,AATCGTAC,0.218
13,ATAGTATA,0.00451
14,GCAATAAC,-0.124
15,GACCGACA,-0.169
16,GCTTTATA,-0.0302
17,AATGTATA,0.215
18,GCATGGAA,-0.00157
19,CAGCGTTC,-0.0425
20,AGAAACCT,-0.237
21,ACACCGAA,-0.076

# 6 successive records out of the list so far, quoted:
row,Sequence,PBM E-score
19,AATTATTG,0.0813
20,CCCTGCCG,-0.0722
21,GAGGAGGA,-0.262
22,GTGTCGTA,0.208
1,ACCGGTAA,0.00473
2,AATATGAC,0.221
